From article PMC5735095

Chains of the proteins cited; added tags and fusions are not shown.
UniProt P12235: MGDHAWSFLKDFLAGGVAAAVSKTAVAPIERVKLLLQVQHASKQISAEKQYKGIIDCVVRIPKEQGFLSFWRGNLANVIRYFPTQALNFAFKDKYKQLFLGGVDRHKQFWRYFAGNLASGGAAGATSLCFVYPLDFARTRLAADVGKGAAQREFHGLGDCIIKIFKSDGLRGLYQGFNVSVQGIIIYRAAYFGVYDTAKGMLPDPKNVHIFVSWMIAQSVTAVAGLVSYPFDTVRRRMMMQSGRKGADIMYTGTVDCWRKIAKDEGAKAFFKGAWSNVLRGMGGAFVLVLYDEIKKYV

Biological target: GST-SHP2 fusion protein (human) (UniProt Q06124)
Test: affinity purification with mass spectrometry; GST pull-down with GST-SHP2 as bait, silver staining, bound proteins identified by mass spectrometry; source of the prey proteins not stated; only the target purified

“ANT1 identified by mass spectrometry among the proteins pulled down by GST-SHP2 (from UniProt P12235 1-298)” was tested, and the binding was “binds”.

No constants are given. Whether binding was seen depends on the method and setting. Binding seen in cells or lysates may run through a third protein. A yes stands for co-enrichment or nearness to the bait. Other partners may have been found.
